# Laboratory results reported in the supplement of paper PMC8728848.
# The list shows a part of the results.
# What was measured:
# Assay in all cases: glycan array binding signal (z-score within array); higher = stronger binding
# Conditions in all cases: glycan notation: IUPAC condensed, linker removed
# [1] = target: Gal(b1-4)GlcNAc(b1-2)Man(a1-6)[GlcNAc(b1-2)Man(a1-3)]Man(b1-4)GlcNAc(b1-4)GlcNAc
# In short: (§1)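 The Consortium for Functional Glycomics database supplied 3228 glycan arrays, of which those lacking an available protein sequence were dropped. The binding signal, a within-array Z-score, was averaged across arrays of the same protein sequence and across linkers. Negative scores can be read as non-binding.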
# [2] = target: Gal(b1-4)GlcNAc(b1-2)Man(a1-6)[Man(a1-3)]Man(b1-4)GlcNAc(b1-4)GlcNAc
# In short: as §1
# [3] = target: Gal(b1-4)GlcNAc(b1-2)[Gal(b1-4)GlcNAc(b1-4)]Man(a1-3)[Gal(b1-4)GlcNAc(b1-2)Man(a1-6)]Man(b1-4)GlcNAc(b1-4)GlcNAc
# In short: as §1
# [4] = target: Gal(b1-4)GlcNAc(b1-2)[Gal(b1-4)GlcNAc(b1-4)]Man(a1-3)[Gal(b1-4)GlcNAc(b1-2)[Gal(b1-4)GlcNAc(b1-6)]Man(a1-6)]Man(b1-4)GlcNAc(b1-4)GlcNAc
# In short: as §1
# [5] = target: Gal(b1-4)GlcNAc(b1-2)[Gal(b1-4)GlcNAc(b1-4)]Man(a1-3)[GlcNAc(b1-4)][Gal(b1-4)GlcNAc(b1-2)Man(a1-6)]Man(b1-4)GlcNAc(b1-4)GlcNAc
# In short: as §1
# [6] = target: Gal(b1-4)GlcNAc(b1-2)[Gal(b1-4)GlcNAc(b1-4)]Man(a1-3)[GlcNAc(b1-4)][Gal(b1-4)GlcNAc(b1-2)[Gal(b1-4)GlcNAc(b1-6)]Man(a1-6)]Man(b1-4)GlcNAc(b1-4)GlcNAc
# In short: as §1
# [7] = target: Gal(b1-4)GlcNAc(b1-2)[Gal(b1-4)GlcNAc(b1-6)]Man(a1-6)[Gal(b1-4)GlcNAc(b1-2)Man(a1-3)]Man(b1-4)GlcNAc(b1-4)GlcNAc
# In short: as §1
# [8] = target: Gal(b1-4)GlcNAc(b1-2)[Gal(b1-4)GlcNAc(b1-6)]Man(a1-6)[Gal(b1-4)GlcNAc(b1-2)Man(a1-3)]Man(b1-4)GlcNAc(b1-4)[Fuc(a1-6)]GlcNAc
# In short: as §1
# [9] = target: Gal(b1-4)GlcNAc(b1-2)[Gal(b1-4)GlcNAc(b1-6)]Man(a1-6)[GlcNAc(b1-4)][Gal(b1-4)GlcNAc(b1-2)Man(a1-3)]Man(b1-4)GlcNAc(b1-4)GlcNAc
# In short: as §1
# [10] = target: Gal(b1-4)GlcNAc(b1-2)[Gal(b1-4)GlcNAc(b1-6)]Man(a1-6)[GlcNAc(b1-4)][Gal(b1-4)GlcNAc(b1-2)[Gal(b1-4)GlcNAc(b1-4)]Man(a1-3)]Man(b1-4)GlcNAc(b1-4)[Fuc(a1-6)]GlcNAc
# In short: as §1
# [11] = target: Gal(b1-4)GlcNAc(b1-3)Gal(b1-3)GalNAc
# In short: as §1
# [12] = target: Gal(b1-4)GlcNAc(b1-3)Gal(b1-3)GlcNAc
# In short: as §1
# [13] = target: Gal(b1-4)GlcNAc(b1-3)Gal(b1-4)Glc
# In short: as §1
# [14] = target: Gal(b1-4)GlcNAc(b1-3)Gal(b1-4)GlcNAc
# In short: as §1
# [15] = target: Gal(b1-4)GlcNAc(b1-3)Gal(b1-4)GlcNAc(b1-2)Man(a1-3)[Gal(b1-4)GlcNAc(b1-3)Gal(b1-4)GlcNAc(b1-2)Man(a1-6)]Man(b1-4)GlcNAc(b1-4)GlcNAc
# In short: as §1
# [16] = target: Gal(b1-4)GlcNAc(b1-3)Gal(b1-4)GlcNAc(b1-2)Man(a1-3)[Gal(b1-4)GlcNAc(b1-3)Gal(b1-4)GlcNAc(b1-2)Man(a1-6)]Man(b1-4)GlcNAc(b1-4)[Fuc(a1-6)]GlcNAc
# In short: as §1
# [17] = target: Gal(b1-4)GlcNAc(b1-3)Gal(b1-4)GlcNAc(b1-2)[Gal(b1-4)GlcNAc(b1-3)Gal(b1-4)GlcNAc(b1-6)]Man(a1-6)[Gal(b1-4)GlcNAc(b1-3)Gal(b1-4)GlcNAc(b1-2)Man(a1-3)]Man(b1-4)GlcNAc(b1-4)GlcNAc
# In short: as §1
# [18] = target: Gal(b1-4)GlcNAc(b1-3)Gal(b1-4)GlcNAc(b1-2)[Gal(b1-4)GlcNAc(b1-3)Gal(b1-4)GlcNAc(b1-6)]Man(a1-6)[Gal(b1-4)GlcNAc(b1-3)Gal(b1-4)GlcNAc(b1-2)Man(a1-3)]Man(b1-4)GlcNAc(b1-4)[Fuc(a1-6)]GlcNAc
# In short: as §1
binder,measurement,setting,value
"AT1G77380(17) (Arabidopsis thaliana), Q39134 (protein) MVQNHQTVLAVDMPQTGGSKYLDDDGKNKRTGSVWTASAHIITAVIGSGVLSLAWATAQLGWLAGPVVMLLFSAVTYFTSSLLAACYRSGDPISGKRNYTYMDAVRSNLGGVKVTLCGIVQYLNIFGVAIGYTIASAISMMAIKRSNCFHKSGGKDPCHMNSNPYMIAFGLVQILFSQIPDFDQLWWLSILAAVMSFTYSSAGLALGIAQVVVNGKVKGSLTGISIGAVTETQKIWRTFQALGDIAFAYSYSIILIEIQDTVKSPPSEEKTMKKATLVSVSVTTMFYMLCGCMGYAAFGDLSPGNLLTGFGFYNPYWLLDIANAAIVIHLIGAYQVYCQPLFAFIEKQASIQFPDSEFIAKDIKIPIPGFKPLRLNVFRLIWRTVFVIITTVISMLLPFFNDVVGLLGALGFWPLTVYFPVEMYIAQKKIPRWSTRWVCLQVFSLGCLVVSIAAAAGSIAGVLLDLKSYKPFRSEY",glycan array binding signal (z-score),[1],-0.742
same,glycan array binding signal (z-score),[2],1.66
same,glycan array binding signal (z-score),[3],2.4
same,glycan array binding signal (z-score),[4],-0.811
same,glycan array binding signal (z-score),[5],-0.107
same,glycan array binding signal (z-score),[6],-0.498
same,glycan array binding signal (z-score),[7],1.34
same,glycan array binding signal (z-score),[8],1.11
same,glycan array binding signal (z-score),[9],-0.609
same,glycan array binding signal (z-score),[10],0.317
same,glycan array binding signal (z-score),[11],-0.234
same,glycan array binding signal (z-score),[12],-0.381
same,glycan array binding signal (z-score),[13],-0.114
same,glycan array binding signal (z-score),[14],1.24
same,glycan array binding signal (z-score),[15],-0.802
same,glycan array binding signal (z-score),[16],0.963
same,glycan array binding signal (z-score),[17],1.81
same,glycan array binding signal (z-score),[18],-0.372
